Reference: PubChem BioAssay AID1224830 (NIAID, 2016)
The deposit covers about 18,000 reagents; this is a part drawn at random. About 2,900 of all reagents (16%) count as active. 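Calls are made per well; low scores hint the gene aids the LPS response, high scores that it dampens it.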 Repeated entries: four replicate wells of each siRNA pool. No sequences are given here.

Test: 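Genes whose knock-down alters the TNF-alpha reporter response to LPS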 (primary screen)
System: human THP-1 monocytic leukaemia cells, TNF dual-luciferase reporter clone, PMA-differentiated to macrophage-like cells
Reagent: siRNA pool against human genes, 50 nM
Duration: LPS for 4 h, given about 3 days after siRNA transfection
Treatment: bacterial LPS (TLR4 ligand), 10 ng/ml
Detection: 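Ratio of firefly to renilla light, scaled to the plate median and expressed as a robust z-score per replicate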
Scale: TNF reporter robust z-score: higher = stronger TNF reporter response to LPS
Hit rule: 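Each well counts as active if its z-score is over 2.8 or under -1.5; controls are left without a call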

| gene symbol | TNF reporter robust z-score | Outcome |
| --- | --- | --- |
| IFT122 (intraflagellar transport 122) | -1 | inactive |
| IFT122 (intraflagellar transport 122) | -0.6 | inactive |
| IFT122 (intraflagellar transport 122) | -0.23 | inactive |
| IFT122 (intraflagellar transport 122) | -0.92 | inactive |
| MAP3K9 (mitogen-activated protein kinase kinase kinase 9) | -0.39 | inactive |
| MAP3K9 (mitogen-activated protein kinase kinase kinase 9) | -1.3 | inactive |
| MAP3K9 (mitogen-activated protein kinase kinase kinase 9) | -0.96 | inactive |
| MAP3K9 (mitogen-activated protein kinase kinase kinase 9) | -0.17 | inactive |
| PPIL2 (peptidylprolyl isomerase like 2) | 3.95 | active |
| PPIL2 (peptidylprolyl isomerase like 2) | -1.98 | active |
| PPIL2 (peptidylprolyl isomerase like 2) | -0.79 | inactive |
| PPIL2 (peptidylprolyl isomerase like 2) | 0.38 | inactive |
| KRTAP11-1 (keratin associated protein 11-1) | 1.3 | inactive |
| KRTAP11-1 (keratin associated protein 11-1) | 0.98 | inactive |
| KRTAP11-1 (keratin associated protein 11-1) | -2.09 | active |
| KRTAP11-1 (keratin associated protein 11-1) | 0.84 | inactive |
| CDH26 (cadherin 26) | -0.82 | inactive |
| CDH26 (cadherin 26) | -1.43 | inactive |
| CDH26 (cadherin 26) | -1.19 | inactive |
| CDH26 (cadherin 26) | 1.34 | inactive |
| LCE2B (late cornified envelope 2B) | -0.07 | inactive |
| LCE2B (late cornified envelope 2B) | -0.03 | inactive |
| LCE2B (late cornified envelope 2B) | 1.06 | inactive |
| LCE2B (late cornified envelope 2B) | -0.41 | inactive |
| RSBN1L (round spermatid basic protein 1 like) | -0.75 | inactive |
| RSBN1L (round spermatid basic protein 1 like) | -0.05 | inactive |
| RSBN1L (round spermatid basic protein 1 like) | -0.08 | inactive |
| RSBN1L (round spermatid basic protein 1 like) | -0.4 | inactive |
| TLL2 (tolloid like 2) | 0.28 | inactive |
| TLL2 (tolloid like 2) | 0.62 | inactive |
| TLL2 (tolloid like 2) | 0.51 | inactive |
| TLL2 (tolloid like 2) | -0.99 | inactive |
| MAP6D1 (MAP6 domain containing 1) | 0.35 | inactive |
| MAP6D1 (MAP6 domain containing 1) | -0.17 | inactive |
| MAP6D1 (MAP6 domain containing 1) | -0.14 | inactive |
| MAP6D1 (MAP6 domain containing 1) | -0.23 | inactive |
| DPAGT1 (dolichyl-phosphate N-acetylglucosaminephosphotransferase 1) | -0.42 | inactive |
| DPAGT1 (dolichyl-phosphate N-acetylglucosaminephosphotransferase 1) | -0.02 | inactive |
| DPAGT1 (dolichyl-phosphate N-acetylglucosaminephosphotransferase 1) | 0.37 | inactive |
| DPAGT1 (dolichyl-phosphate N-acetylglucosaminephosphotransferase 1) | -0.14 | inactive |
| MAPKAPK2 (MAPK activated protein kinase 2) | 0.24 | inactive |
| MAPKAPK2 (MAPK activated protein kinase 2) | 1.3 | inactive |
| MAPKAPK2 (MAPK activated protein kinase 2) | -0.33 | inactive |
| MAPKAPK2 (MAPK activated protein kinase 2) | -0.62 | inactive |
| KRT76 (keratin 76) | 0.32 | inactive |
| KRT76 (keratin 76) | -0.13 | inactive |
| KRT76 (keratin 76) | 0.49 | inactive |
| KRT76 (keratin 76) | -0.44 | inactive |
| CD163 (CD163 molecule) | -1.42 | inactive |
| CD163 (CD163 molecule) | -0.07 | inactive |
| CD163 (CD163 molecule) | -1.15 | inactive |
| CD163 (CD163 molecule) | -0.35 | inactive |
| NDUFV2 (NADH:ubiquinone oxidoreductase core subunit V2) | -0.99 | inactive |
| NDUFV2 (NADH:ubiquinone oxidoreductase core subunit V2) | -1.11 | inactive |
| NDUFV2 (NADH:ubiquinone oxidoreductase core subunit V2) | -1.25 | inactive |
| NDUFV2 (NADH:ubiquinone oxidoreductase core subunit V2) | -1.03 | inactive |
| CCK (cholecystokinin) | -1.49 | inactive |
| CCK (cholecystokinin) | -0.55 | inactive |
| CCK (cholecystokinin) | -0.24 | inactive |
| CCK (cholecystokinin) | -0.39 | inactive |
| MYL1 (myosin light chain 1) | -1.59 | active |
| MYL1 (myosin light chain 1) | -1.45 | inactive |
| MYL1 (myosin light chain 1) | -2.1 | active |
| MYL1 (myosin light chain 1) | -1.72 | active |
| HLA-L (major histocompatibility complex, class I, L (pseudogene)) | -0.09 | inactive |
| HLA-L (major histocompatibility complex, class I, L (pseudogene)) | -0.56 | inactive |
| HLA-L (major histocompatibility complex, class I, L (pseudogene)) | 0.35 | inactive |
| HLA-L (major histocompatibility complex, class I, L (pseudogene)) | -0.34 | inactive |
| PNPT1 (polyribonucleotide nucleotidyltransferase 1) | -0.35 | inactive |
| PNPT1 (polyribonucleotide nucleotidyltransferase 1) | -0.37 | inactive |
| PNPT1 (polyribonucleotide nucleotidyltransferase 1) | -1.19 | inactive |
| PNPT1 (polyribonucleotide nucleotidyltransferase 1) | -0.74 | inactive |
| CCNE1 (cyclin E1) | -1.42 | inactive |
| CCNE1 (cyclin E1) | -0.31 | inactive |
| CCNE1 (cyclin E1) | -0.55 | inactive |
| CCNE1 (cyclin E1) | -1.16 | inactive |
